Measurements taken from patent US6031073A (La Jolla Pharmaceutical Company, priority 1997, dated 2000).

Test: general procedure: Fmoc solid-phase peptide synthesis; (Fmoc)-Gly-Wang resin; MBHA resin; Rink amide MBHA resin; DIC/HOBt
Details: for cyclisation yield / final HPLC purity: cyclisation step; for crude HPLC purity: whole synthesis, analytical RP-HPLC (TFA system and TEAP system)
[1] = TEAP system, thioether ring, run 1
[2] = TFA system, thioether ring, run 1
[3] = thioether ring, sequence written open
[4] = TEAP system, thioether ring, sequence written open
[5] = TFA system, thioether ring, sequence written open

(Fmoc)AGPHsLGVLGKLCPG
cyclisation yield: 19% | final HPLC purity (TEAP system): 94.0% | final HPLC purity (TFA system): 97.0%

AGPHsLGVLGKLCPG
final HPLC purity (TFA system): 100% | cyclisation yield (run 1): 33% | cyclisation yield (run 2): 94%

GPCLGVLGKLHsPG [2G3-METE]
final HPLC purity (TEAP system, thioether ring): 84.4% | final HPLC purity (TFA system, thioether ring): 85.3% | cyclisation yield (thioether ring): 36%

GPSLGVLGKLHcPG [d-2G3-METE]
final HPLC purity [1]: 91.6% | final HPLC purity [2]: 98.4% | cyclisation yield (thioether ring, run 1): 16%

GPSLGVLGKLHcPG [l-2G3-METE]
final HPLC purity [1]: 84.4% | final HPLC purity [2]: 85.3% | cyclisation yield (thioether ring, run 1): 29%

GPSLILAPDRC
cyclisation yield [3]: 27%

HsHNLGQLC
crude HPLC purity: 57.2%

HsLGVLGKLC
cyclisation yield: 51% | final HPLC purity (TEAP system): 94.4% | final HPLC purity (TFA system): 92.8%

HsLGVLGKLHc
cyclisation yield: 48% | final HPLC purity (TEAP system): 98.0% | final HPLC purity (TFA system): 97.1%

HsLRSLGEMC
crude HPLC purity: 34.8%

HsYGTLGKLC
crude HPLC purity: 71.6%

PEPTIDE1{G.P.[Abu4yl].L.G.V.L.G.K.L.C.P.G}$PEPTIDE1,PEPTIDE1,3:R3-11:R3$$$V2.0
cyclisation yield: 84% | final HPLC purity (TFA system): 100%

PEPTIDE1{G.P.[Abu4yl].L.G.V.L.G.K.L.[Hc].P.G}$PEPTIDE1,PEPTIDE1,3:R3-11:R3$$$V2.0
cyclisation yield: 75%

SLGVLGKLC
final HPLC purity [4]: 97.6% | final HPLC purity [5]: 97.1% | cyclisation yield [3]: 49%

SLGVLGKLHc
final HPLC purity [4]: 93.4% | final HPLC purity [5]: 94.8% | cyclisation yield [3]: 52%

Plain letter strings leave the end groups untold. Some peptides are written in HELM: one residue between dots, names in brackets for other building blocks, links after the first $.
